Measured values reported in paper doi:10.1101/2022.09.15.508094.
Results are given in words; binding and its absence hold for the method and conditions named. Some binding calls cover weakened binding; strength is not graded here. Sequences can lack the tags named with a protein.

By UniProt entry, the sequences of proteins in these tests, tags left out.
UniProt O93309, whole entry: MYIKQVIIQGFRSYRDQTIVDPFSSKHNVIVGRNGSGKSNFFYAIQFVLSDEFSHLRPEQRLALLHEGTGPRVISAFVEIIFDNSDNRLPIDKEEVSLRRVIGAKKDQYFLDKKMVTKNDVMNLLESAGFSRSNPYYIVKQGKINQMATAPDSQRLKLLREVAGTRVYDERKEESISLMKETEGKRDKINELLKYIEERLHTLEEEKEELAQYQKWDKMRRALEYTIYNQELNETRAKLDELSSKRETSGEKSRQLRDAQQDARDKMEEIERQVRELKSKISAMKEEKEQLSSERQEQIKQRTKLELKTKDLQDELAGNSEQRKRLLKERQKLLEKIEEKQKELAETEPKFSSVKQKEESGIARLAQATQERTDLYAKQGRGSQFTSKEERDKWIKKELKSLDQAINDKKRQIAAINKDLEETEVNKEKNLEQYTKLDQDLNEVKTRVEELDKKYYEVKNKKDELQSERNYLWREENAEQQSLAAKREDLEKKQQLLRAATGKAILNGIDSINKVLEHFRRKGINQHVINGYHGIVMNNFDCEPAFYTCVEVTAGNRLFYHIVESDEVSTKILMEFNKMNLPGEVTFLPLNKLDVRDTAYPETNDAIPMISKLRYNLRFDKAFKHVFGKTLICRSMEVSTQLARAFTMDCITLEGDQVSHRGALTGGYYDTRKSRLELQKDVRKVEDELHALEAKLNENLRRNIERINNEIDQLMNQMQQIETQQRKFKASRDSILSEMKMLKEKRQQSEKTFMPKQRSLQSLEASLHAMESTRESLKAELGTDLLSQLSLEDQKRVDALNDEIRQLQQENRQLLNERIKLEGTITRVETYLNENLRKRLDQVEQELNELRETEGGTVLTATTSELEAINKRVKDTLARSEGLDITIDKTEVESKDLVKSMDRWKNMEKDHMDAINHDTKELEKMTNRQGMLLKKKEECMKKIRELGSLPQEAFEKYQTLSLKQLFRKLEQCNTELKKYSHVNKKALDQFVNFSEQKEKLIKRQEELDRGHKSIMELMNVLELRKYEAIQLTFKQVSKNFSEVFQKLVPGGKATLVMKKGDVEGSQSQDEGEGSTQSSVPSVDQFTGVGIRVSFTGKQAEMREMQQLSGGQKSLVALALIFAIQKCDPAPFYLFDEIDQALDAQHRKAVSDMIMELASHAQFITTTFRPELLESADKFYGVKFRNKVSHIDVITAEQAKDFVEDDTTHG

Target: T1, XRAD21-8xHis (Xenopus laevis) (UniProt O93310)
T1 sequence: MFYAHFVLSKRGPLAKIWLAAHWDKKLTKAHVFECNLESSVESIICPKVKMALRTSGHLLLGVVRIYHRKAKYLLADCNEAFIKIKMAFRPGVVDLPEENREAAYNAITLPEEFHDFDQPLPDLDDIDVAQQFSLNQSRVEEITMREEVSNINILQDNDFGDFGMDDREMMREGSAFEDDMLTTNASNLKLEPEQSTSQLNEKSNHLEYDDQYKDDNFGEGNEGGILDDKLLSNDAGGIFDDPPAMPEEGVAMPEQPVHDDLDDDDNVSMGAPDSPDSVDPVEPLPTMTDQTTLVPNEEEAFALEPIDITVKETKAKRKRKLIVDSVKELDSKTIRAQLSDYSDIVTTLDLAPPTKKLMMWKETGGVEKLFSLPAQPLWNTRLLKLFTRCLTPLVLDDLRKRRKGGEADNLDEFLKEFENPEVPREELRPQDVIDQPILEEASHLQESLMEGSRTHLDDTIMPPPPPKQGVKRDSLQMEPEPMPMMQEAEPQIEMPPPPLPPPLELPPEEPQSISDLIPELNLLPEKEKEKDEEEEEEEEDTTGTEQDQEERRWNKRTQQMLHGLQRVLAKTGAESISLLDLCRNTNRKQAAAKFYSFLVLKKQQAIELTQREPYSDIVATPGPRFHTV
Assay: co-purification

binding: binds
Substance: XSMC3-Halo-Flag (from UniProt O93309 1-1209)
